# Results: the supplement of paper PMC10849652
# The chains behind the UniProt entries cited, without tags or fusion partners. Where a name states a change or a piece, a line headed by the entry shows the natural chain unless it says otherwise.
# UniProt O75298: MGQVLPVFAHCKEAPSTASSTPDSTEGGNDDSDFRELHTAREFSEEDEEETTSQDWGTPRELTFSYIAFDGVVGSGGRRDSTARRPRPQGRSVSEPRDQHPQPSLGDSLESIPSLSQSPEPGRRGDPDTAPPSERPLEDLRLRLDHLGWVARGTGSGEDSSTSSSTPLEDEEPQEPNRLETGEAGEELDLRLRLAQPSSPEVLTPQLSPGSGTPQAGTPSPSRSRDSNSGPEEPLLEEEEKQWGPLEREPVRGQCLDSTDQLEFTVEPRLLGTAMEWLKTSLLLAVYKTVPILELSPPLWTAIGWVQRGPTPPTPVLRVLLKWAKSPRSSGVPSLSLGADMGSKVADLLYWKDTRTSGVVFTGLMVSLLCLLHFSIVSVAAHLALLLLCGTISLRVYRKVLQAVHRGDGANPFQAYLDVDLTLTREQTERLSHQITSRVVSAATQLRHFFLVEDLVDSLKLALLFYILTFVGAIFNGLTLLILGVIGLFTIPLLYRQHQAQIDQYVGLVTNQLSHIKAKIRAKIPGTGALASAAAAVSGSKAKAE
# UniProt Q92766: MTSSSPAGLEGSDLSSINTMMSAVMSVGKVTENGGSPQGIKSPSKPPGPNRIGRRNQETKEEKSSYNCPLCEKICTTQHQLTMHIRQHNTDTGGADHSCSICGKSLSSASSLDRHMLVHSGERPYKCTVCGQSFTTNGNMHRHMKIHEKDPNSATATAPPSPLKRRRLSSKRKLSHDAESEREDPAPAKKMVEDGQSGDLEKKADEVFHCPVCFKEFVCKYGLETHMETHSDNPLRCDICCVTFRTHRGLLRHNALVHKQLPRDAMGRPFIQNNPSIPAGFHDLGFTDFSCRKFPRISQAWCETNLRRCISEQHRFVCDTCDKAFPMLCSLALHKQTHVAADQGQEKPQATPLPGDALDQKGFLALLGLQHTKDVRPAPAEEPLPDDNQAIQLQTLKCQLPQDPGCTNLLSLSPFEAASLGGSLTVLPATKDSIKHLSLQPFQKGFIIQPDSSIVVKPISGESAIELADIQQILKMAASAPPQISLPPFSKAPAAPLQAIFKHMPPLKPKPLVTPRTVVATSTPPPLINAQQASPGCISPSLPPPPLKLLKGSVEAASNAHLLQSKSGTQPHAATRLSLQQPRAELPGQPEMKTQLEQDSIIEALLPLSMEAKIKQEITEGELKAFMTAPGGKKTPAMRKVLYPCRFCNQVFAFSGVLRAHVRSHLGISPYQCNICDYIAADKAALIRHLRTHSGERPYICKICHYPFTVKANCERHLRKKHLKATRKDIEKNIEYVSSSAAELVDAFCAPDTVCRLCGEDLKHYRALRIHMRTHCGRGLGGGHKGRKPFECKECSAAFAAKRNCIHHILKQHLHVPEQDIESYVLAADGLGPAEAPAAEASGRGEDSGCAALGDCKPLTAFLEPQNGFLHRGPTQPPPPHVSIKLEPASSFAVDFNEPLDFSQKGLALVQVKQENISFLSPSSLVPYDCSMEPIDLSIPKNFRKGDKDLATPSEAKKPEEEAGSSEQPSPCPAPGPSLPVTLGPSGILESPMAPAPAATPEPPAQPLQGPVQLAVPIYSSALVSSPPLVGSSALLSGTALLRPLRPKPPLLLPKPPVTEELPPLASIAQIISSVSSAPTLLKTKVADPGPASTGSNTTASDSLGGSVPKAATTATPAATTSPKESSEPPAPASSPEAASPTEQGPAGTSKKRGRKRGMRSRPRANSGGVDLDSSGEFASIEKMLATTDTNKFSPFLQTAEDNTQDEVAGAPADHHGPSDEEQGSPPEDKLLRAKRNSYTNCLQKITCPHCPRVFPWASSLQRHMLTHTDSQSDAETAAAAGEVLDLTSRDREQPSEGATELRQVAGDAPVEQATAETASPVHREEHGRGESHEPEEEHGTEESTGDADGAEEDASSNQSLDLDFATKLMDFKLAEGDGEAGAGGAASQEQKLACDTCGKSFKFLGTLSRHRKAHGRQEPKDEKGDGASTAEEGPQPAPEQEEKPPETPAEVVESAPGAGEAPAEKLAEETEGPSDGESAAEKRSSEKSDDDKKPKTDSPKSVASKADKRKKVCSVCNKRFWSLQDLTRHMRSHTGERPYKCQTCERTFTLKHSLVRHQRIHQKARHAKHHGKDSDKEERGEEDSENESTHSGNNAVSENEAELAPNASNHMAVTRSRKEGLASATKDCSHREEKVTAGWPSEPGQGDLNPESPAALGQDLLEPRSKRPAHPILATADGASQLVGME
# UniProt Q6PCB5: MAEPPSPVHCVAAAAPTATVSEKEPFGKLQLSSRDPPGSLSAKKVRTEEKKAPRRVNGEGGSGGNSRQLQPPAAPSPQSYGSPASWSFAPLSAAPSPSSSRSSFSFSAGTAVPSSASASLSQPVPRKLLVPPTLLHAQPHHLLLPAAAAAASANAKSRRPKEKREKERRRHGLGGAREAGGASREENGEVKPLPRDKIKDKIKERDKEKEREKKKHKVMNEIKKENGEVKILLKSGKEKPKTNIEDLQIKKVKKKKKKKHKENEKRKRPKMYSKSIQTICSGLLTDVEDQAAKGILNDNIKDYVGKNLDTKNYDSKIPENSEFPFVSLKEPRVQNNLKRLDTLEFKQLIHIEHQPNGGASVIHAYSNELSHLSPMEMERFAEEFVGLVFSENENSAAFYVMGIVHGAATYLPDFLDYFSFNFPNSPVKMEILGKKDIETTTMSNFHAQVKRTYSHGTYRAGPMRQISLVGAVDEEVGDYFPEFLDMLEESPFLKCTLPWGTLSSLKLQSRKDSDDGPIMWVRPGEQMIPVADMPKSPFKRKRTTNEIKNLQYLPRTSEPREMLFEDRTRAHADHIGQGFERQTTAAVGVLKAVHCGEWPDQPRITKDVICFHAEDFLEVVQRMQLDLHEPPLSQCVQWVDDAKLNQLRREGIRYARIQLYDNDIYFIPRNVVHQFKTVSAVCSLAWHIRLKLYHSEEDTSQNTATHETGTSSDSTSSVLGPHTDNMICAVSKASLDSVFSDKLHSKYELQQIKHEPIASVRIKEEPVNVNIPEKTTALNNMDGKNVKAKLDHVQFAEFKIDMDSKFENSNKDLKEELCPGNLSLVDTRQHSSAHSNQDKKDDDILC
# UniProt P04844: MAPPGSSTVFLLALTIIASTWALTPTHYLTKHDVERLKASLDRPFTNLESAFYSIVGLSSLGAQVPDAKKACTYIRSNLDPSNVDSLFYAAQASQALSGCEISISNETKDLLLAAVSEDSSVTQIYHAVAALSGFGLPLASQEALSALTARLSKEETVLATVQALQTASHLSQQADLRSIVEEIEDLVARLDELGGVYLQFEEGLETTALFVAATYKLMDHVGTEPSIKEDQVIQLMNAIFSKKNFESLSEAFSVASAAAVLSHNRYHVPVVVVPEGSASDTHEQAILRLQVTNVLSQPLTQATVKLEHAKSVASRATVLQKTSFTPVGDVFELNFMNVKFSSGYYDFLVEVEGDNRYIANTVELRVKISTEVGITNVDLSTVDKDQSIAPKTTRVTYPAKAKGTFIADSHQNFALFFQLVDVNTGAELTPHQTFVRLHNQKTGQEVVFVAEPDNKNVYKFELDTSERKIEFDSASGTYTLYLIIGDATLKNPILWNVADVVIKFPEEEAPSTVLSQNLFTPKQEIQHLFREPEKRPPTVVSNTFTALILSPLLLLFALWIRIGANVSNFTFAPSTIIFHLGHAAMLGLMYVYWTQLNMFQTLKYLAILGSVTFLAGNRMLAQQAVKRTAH
# UniProt P31949: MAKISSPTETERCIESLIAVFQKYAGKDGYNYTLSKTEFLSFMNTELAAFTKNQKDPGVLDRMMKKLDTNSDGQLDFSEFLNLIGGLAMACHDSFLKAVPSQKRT
# UniProt P51812, whole entry, looked up: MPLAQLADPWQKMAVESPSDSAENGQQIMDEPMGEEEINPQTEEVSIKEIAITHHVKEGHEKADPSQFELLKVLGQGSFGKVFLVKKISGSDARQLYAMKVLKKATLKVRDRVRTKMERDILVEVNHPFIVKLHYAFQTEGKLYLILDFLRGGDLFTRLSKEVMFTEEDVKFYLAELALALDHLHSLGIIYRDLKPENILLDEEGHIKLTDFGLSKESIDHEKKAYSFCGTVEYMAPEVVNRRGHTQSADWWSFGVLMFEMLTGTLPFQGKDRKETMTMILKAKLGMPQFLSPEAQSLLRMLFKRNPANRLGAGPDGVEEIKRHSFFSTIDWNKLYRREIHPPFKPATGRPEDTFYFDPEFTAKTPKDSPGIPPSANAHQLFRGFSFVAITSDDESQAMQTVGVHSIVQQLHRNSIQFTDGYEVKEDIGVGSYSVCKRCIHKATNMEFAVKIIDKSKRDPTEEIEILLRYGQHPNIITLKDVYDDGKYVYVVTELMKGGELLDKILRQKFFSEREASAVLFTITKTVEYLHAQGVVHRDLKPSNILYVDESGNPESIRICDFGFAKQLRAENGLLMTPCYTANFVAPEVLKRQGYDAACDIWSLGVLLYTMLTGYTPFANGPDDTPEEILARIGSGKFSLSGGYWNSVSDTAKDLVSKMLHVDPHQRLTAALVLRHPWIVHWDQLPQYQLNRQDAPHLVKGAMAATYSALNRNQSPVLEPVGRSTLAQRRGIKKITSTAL
# UniProt Q5VWQ0: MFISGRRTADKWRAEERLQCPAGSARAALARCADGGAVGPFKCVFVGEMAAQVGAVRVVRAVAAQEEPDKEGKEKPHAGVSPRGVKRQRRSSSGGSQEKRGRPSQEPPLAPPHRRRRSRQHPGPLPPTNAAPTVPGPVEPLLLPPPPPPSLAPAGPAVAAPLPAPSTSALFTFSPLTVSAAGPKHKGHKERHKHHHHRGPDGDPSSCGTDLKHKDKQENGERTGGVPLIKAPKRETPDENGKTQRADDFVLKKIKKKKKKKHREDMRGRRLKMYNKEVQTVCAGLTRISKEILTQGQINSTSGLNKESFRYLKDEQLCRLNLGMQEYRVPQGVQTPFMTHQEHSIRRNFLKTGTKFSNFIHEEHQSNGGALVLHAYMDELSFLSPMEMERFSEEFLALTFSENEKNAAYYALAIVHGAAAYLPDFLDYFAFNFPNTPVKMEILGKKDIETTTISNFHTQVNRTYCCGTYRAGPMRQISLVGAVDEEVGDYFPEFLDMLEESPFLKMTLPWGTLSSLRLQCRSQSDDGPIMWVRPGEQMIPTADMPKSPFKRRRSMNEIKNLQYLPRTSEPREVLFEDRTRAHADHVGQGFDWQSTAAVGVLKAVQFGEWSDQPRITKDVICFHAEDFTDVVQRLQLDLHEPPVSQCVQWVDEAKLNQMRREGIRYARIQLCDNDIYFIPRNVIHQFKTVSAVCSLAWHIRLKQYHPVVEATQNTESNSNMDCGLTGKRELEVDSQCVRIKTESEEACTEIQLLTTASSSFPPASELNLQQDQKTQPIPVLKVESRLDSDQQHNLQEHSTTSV
# The other results are listed elsewhere or left out.
# Experiments:
# Experiment in all cases: log2 fold change, soluble protein after heating vs DMSO (PISA); higher = thermal stabilisation; K562 lysate, 10 uM; active = over 0.2 and 3.5 SD of the protein, either way, in both replicates (recomputed)
# lapatinib = compound: CS(=O)(=O)CCNCc1ccc(-c2ccc3ncnc(Nc4ccc(OCc5cccc(F)c5)c(Cl)c4)c3c2)o1 [lapatinib]
# Procedure, shortened: (§1)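 A 30 min treatment with 10 μM compound was applied to crude K562 extract at 1 mg/mL protein in PBS pH 7.4 with 1 mM MgCl2. Heating for 3 min spanned 48°C-58°C, after which aliquots were pooled, adjusted to 0.5% NP-40 at 4°C and spun at 21,000xg for 90 min. TMTpro 16plex LC-MS/MS of the supernatant, with channel sums equalised, gave values recorded as log-two fold change in thermal stability against solvent controls, from duplicates.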
# pictilisib = compound: CS(=O)(=O)N1CCN(Cc2cc3nc(-c4cccc5[nH]ncc45)nc(N4CCOCC4)c3s2)CC1 [pictilisib]
# Procedure, shortened: as §1
# crizotinib = compound: C[C@@H](Oc1cc(-c2cnn(C3CCNCC3)c2)cnc1N)c1c(Cl)ccc(F)c1Cl [crizotinib]
# Procedure, shortened: as §1
# [1] = compound: C[C@H](C1=CC=C(C=C1)C(=O)NC2=C3C=CNC3=NC=C2)N
# Procedure, shortened: as §1
# duvelisib = compound: C[C@H](Nc1ncnc2nc[nH]c12)c1cc2cccc(Cl)c2c(=O)n1-c1ccccc1 [duvelisib]
# Procedure, shortened: as §1
# gandotinib = compound: Cc1cc(Nc2cc(CN3CCOCC3)c3nc(C)c(Cc4ccc(Cl)cc4F)n3n2)n[nH]1 [gandotinib]
# Procedure, shortened: as §1
# tozasertib = compound: Cc1cc(Nc2cc(N3CCN(C)CC3)nc(Sc3ccc(NC(=O)C4CC4)cc3)n2)n[nH]1 [tozasertib]
# Procedure, shortened: as §1
# doramapimod = compound: Cc1ccc(-n2nc(C(C)(C)C)cc2NC(=O)Nc2ccc(OCCN3CCOCC3)c3ccccc23)cc1 [doramapimod]
# Procedure, shortened: as §1
# bafetinib = compound: Cc1ccc(NC(=O)c2ccc(CN3CC[C@H](N(C)C)C3)c(C(F)(F)F)c2)cc1Nc1nccc(-c2cncnc2)n1 [bafetinib]
# Procedure, shortened: as §1
# [2] = compound: Cc1cccc(CC(=O)N2CCc3c2ccc(-c2cn(C)c4ncnc(N)c24)c3F)n1
# Procedure, shortened: as §1
# nilotinib = compound: Cc1cn(-c2cc(NC(=O)c3ccc(C)c(Nc4nccc(-c5cccnc5)n4)c3)cc(C(F)(F)F)c2)cn1 [nilotinib]
# Procedure, shortened: as §1
# [3] = compound: Cc1nc(Nc2n[nH]c3c2CN(C(=O)N[C@H](CN(C)C)c2ccccc2)C3(C)C)c2sccc2n1
# Procedure, shortened: as §1
# dasatinib = compound: Cc1nc(Nc2ncc(C(=O)Nc3c(C)cccc3Cl)s2)cc(N2CCN(CCO)CC2)n1 [dasatinib]
# Procedure, shortened: as §1
# [4] = compound: Cc1ncc(-c2ccnc(Nc3ccc(S(C)(=O)=O)cc3)n2)n1C(C)C
# Procedure, shortened: as §1
# [5] = compound: Cn1cc(-c2ccc3c(c2)CCN3C(=O)Cc2cccc(C(F)(F)F)c2)c2c(N)ncnc21
# Procedure, shortened: as §1
# quisinostat = compound: Cn1cc(CNCC2CCN(c3ncc(C(=O)NO)cn3)CC2)c2ccccc21 [quisinostat]
# Procedure, shortened: as §1
# tipifarnib = compound: Cn1cncc1[C@@](N)(c1ccc(Cl)cc1)c1ccc2c(c1)c(-c1cccc(Cl)c1)cc(=O)n2C [tipifarnib]
# Procedure, shortened: as §1
# [6] = compound: NC(=O)Nc1cc(-c2cccc(F)c2)sc1C(=O)N[C@H]1CCCNC1
# Procedure, shortened: as §1
# [7] = compound: NC(=O)c1cnc(N[C@@H]2CCCC[C@@H]2N)nc1Nc1cccc(-n2nccn2)c1
# Procedure, shortened: as §1
# [8] = compound: NC1(c2ccc(-c3nc4ccn5c(=O)[nH]nc5c4cc3-c3ccccc3)cc2)CCC1
# Procedure, shortened: as §1
Target,log2 fold change (lapatinib),log2 fold change (pictilisib),log2 fold change (crizotinib),log2 fold change [1],log2 fold change (duvelisib),log2 fold change (gandotinib),log2 fold change (tozasertib),log2 fold change (doramapimod),log2 fold change (bafetinib),log2 fold change [2],log2 fold change (nilotinib),log2 fold change [3],log2 fold change (dasatinib),log2 fold change [4],log2 fold change [5],log2 fold change (quisinostat),log2 fold change (tipifarnib),log2 fold change [6],log2 fold change [7],log2 fold change [8]
RPL5 (UniProt P46777),inactive: 0.018,inactive: 0.042,inactive: 0.002,inactive: 0.033,inactive: 0.021,inactive: -0.044,inactive: -0.002,inactive: -0.004,inactive: -0.001,inactive: -0.038,inactive: 0.022,inactive: 0.007,inactive: 0.01,inactive: 0.004,inactive: 0.01,inactive: 0.009,inactive: 0.057,inactive: 0.001,inactive: -0.015,inactive: -0.006
RTN2 (UniProt O75298),inactive: 0.024,inactive: -0.202,inactive: 0.059,inactive: 0.019,inactive: -0.053,inactive: -0.006,inactive: -0.021,inactive: -0.036,inactive: 0.091,inactive: 0.032,inactive: -0.019,inactive: 0.03,inactive: 0.01,inactive: -0.044,inactive: 0.027,inactive: 0.171,inactive: -0.07,inactive: -0.057,inactive: -0.056,inactive: 0.018
RPL8 (UniProt P62917),inactive: -0.005,inactive: 0.01,inactive: 0.059,inactive: 0.147,inactive: 0.008,inactive: -0.072,inactive: 0.033,inactive: -0.038,inactive: 0.071,inactive: -0.051,inactive: -0.005,inactive: -0.004,inactive: 0.035,inactive: -0.028,inactive: -0.013,active: 0.222,inactive: 0.027,inactive: -0.019,inactive: -0.008,inactive: -0.006
RPS3 (UniProt P23396),inactive: -0.017,inactive: 0.001,inactive: -0.003,inactive: 0.008,inactive: 0.012,inactive: -0.014,inactive: 0.002,inactive: -0.002,inactive: 0.003,inactive: -0.026,inactive: -0.006,inactive: -0.001,inactive: 0.031,inactive: -0.014,inactive: 0.02,inactive: 0.017,inactive: 0.024,inactive: 0,inactive: -0.014,inactive: 0.01
RREB1 isoform 2 (UniProt Q92766),inactive: 0.184,inactive: -0.041,inactive: 0.02,inactive: 0.05,inactive: -0.142,inactive: -0.177,inactive: 0.03,inactive: 0.027,inactive: 0.068,inactive: -0.023,inactive: -0.207,inactive: 0.076,inactive: -0.149,inactive: 0.102,inactive: -0.059,inactive: -0.135,inactive: 0.011,inactive: -0.026,inactive: -0.054,inactive: 0.055
RSBN1L (UniProt Q6PCB5),inactive: 0.002,inactive: 0.005,inactive: -0.078,inactive: -0.032,inactive: 0.006,inactive: 0.019,inactive: -0.024,inactive: 0.001,inactive: -0.009,inactive: 0.024,inactive: -0.002,inactive: 0.03,inactive: 0.021,inactive: 0.023,inactive: -0.003,inactive: -0.035,inactive: 0,inactive: -0.005,inactive: 0.001,inactive: -0.011
RPN2 (UniProt P04844),inactive: -0.048,inactive: -0.006,inactive: -0.004,inactive: -0.074,inactive: -0.003,inactive: 0.039,inactive: -0.003,inactive: 0,inactive: -0.032,inactive: 0.06,inactive: -0.011,inactive: 0.005,inactive: -0.008,inactive: -0.013,inactive: -0.006,inactive: 0.049,inactive: -0.015,inactive: -0.001,inactive: 0.011,inactive: -0.003
S100A11 (UniProt P31949),inactive: 0.105,inactive: 0.006,inactive: 0.02,inactive: 0.097,inactive: 0.052,inactive: -0.042,inactive: -0.043,inactive: 0.003,inactive: -0.039,inactive: -0.032,inactive: 0.067,inactive: 0.007,inactive: 0.013,inactive: 0.056,inactive: -0.02,inactive: 0.05,inactive: 0.041,inactive: -0.033,inactive: 0,inactive: -0.006
RPS26 (UniProt P62854),inactive: 0.027,inactive: 0.015,inactive: 0.04,inactive: -0.105,inactive: 0.025,inactive: 0.061,inactive: -0.043,inactive: -0.077,inactive: -0.114,inactive: 0,inactive: 0.018,inactive: -0.019,inactive: 0.059,inactive: -0.025,inactive: -0.11,inactive: -0.022,inactive: -0.061,inactive: 0.077,inactive: -0.01,inactive: 0.026
RPS6 (UniProt P62753),inactive: -0.031,inactive: 0.025,inactive: -0.013,inactive: -0.148,inactive: 0.042,inactive: 0.02,inactive: 0,inactive: -0.001,inactive: -0.003,inactive: 0.069,inactive: -0.016,inactive: 0.012,inactive: -0.036,inactive: -0.017,inactive: -0.015,inactive: 0.078,inactive: 0.019,inactive: -0.024,inactive: -0.002,inactive: -0.008
RPS6KA3 (UniProt P51812),inactive: -0.089,inactive: 0.223,inactive: -0.012,inactive: -0.037,inactive: -0.016,inactive: 0.156,inactive: 0.363,inactive: -0.057,inactive: -0.077,inactive: -0.083,inactive: -0.02,inactive: 0.17,inactive: -0.065,inactive: 0.039,inactive: 0.031,inactive: -0.046,inactive: -0.023,inactive: 0.133,inactive: 0.09,inactive: 0.005
RPS26P11 (UniProt Q5JNZ5),inactive: 0.024,inactive: -0.008,inactive: -0.085,active: -0.484,inactive: 0.076,inactive: 0.147,inactive: -0.055,inactive: 0.021,inactive: -0.072,active: 0.24,inactive: 0.026,inactive: 0.027,inactive: -0.017,inactive: 0.044,inactive: 0.02,inactive: -0.151,inactive: 0.004,inactive: -0.036,inactive: 0,inactive: -0.004
RSL1D1 (UniProt O76021),inactive: 0.004,inactive: 0.01,inactive: 0.022,inactive: 0.03,inactive: -0.01,inactive: -0.056,inactive: 0.008,inactive: -0.049,inactive: 0.014,inactive: -0.005,inactive: -0.008,inactive: 0.038,inactive: 0.023,inactive: -0.018,inactive: -0.004,inactive: 0.06,inactive: 0.042,inactive: -0.017,inactive: -0.002,inactive: -0.004
RPS3A (UniProt P61247),inactive: 0,inactive: 0.017,inactive: 0.047,inactive: 0.041,inactive: -0.005,inactive: -0.043,inactive: 0.018,inactive: 0.001,inactive: 0.016,inactive: -0.018,inactive: -0.007,inactive: 0.003,inactive: 0.024,inactive: -0.029,inactive: 0.013,inactive: 0.074,inactive: 0.041,inactive: -0.004,inactive: -0.033,inactive: 0.043
RSBN1 (UniProt Q5VWQ0),inactive: -0.034,inactive: -0.01,inactive: -0.05,inactive: -0.01,inactive: -0.002,inactive: 0.036,inactive: -0.067,inactive: 0.021,inactive: 0.02,inactive: 0.046,inactive: 0.018,inactive: 0.003,inactive: 0.054,inactive: -0.033,inactive: -0.046,inactive: -0.117,inactive: 0.041,inactive: 0.024,inactive: 0.003,inactive: -0.03
RPL4 (UniProt P36578),inactive: -0.01,inactive: 0.024,inactive: 0.039,inactive: 0.12,inactive: 0.02,inactive: -0.045,inactive: -0.036,inactive: -0.031,inactive: 0.013,inactive: -0.048,inactive: 0.051,inactive: -0.029,inactive: 0.049,inactive: -0.015,inactive: -0.014,inactive: 0.08,inactive: 0.015,inactive: 0.003,inactive: -0.013,inactive: -0.006

# Only log2 fold change (dasatinib) and log2 fold change (duvelisib), for some of the entries so far:
Target	log2 fold change (dasatinib)	log2 fold change (duvelisib)
RTN2 (UniProt O75298)	inactive: 0.01	inactive: -0.053
RREB1 isoform 2 (UniProt Q92766)	inactive: -0.149	inactive: -0.142
